Experimental data as given in the supplement of paper PMC12282887.
Values are raw readings; no control value is given beside them.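 For antimicrobials the highest concentration approximated the MIC. Most other compounds topped out at 500 µM, and known inducer-like compounds reached up to 1 mM. Inocula for deletion strains were tenfold smaller, and any well growing below 10% of the overall median was considered non-growing.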

System: Escherichia coli BW25113
Assay: growth (OD600 area under curve, 8 h) (OD600 x h); higher = more growth
Description: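 E. coli BW25113 reporter strains (wild type, ΔmarA, ΔsoxS, Δrob, each carrying one of 8 lux reporter plasmids) were grown in 40 µl LB in 384-well plates at 37°C, 800 rpm, with each compound at 4 two-fold concentrations, in biological duplicates. Growth is the baseline-corrected OD600 area under the curve over 8 h (0-8 h WT, 1-9 h deletion strains).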

NC(N)=S [Thiourea]
growth
Conditions	reporter plasmid: EVC	reporter plasmid: acrABp	reporter plasmid: marRABp	reporter plasmid: micFp	reporter plasmid: ompFp	reporter plasmid: robp	reporter plasmid: soxSp	reporter plasmid: tolCp
4.8 µg/ml, genetic background: wild type	2.79	3.175	3	2.95	3.03	2.96	2.86	2.81
4.8 µg/ml, genetic background: ΔmarA	2.97	4.23	3.59	3.53	3.36	3.567	3.12	2.95
4.8 µg/ml, genetic background: Δrob	2.97	3.63	3.33	2.87	2.52	2.96	2.7	2.87
4.8 µg/ml, genetic background: ΔsoxS	3.23	3.58	3.25	2.9	2.8	3.337	3.13	3.13
9.5 µg/ml, genetic background: wild type	2.76	3.0213	3.08	2.94	3.01	2.91	2.835	2.9
9.5 µg/ml, genetic background: ΔmarA	2.88	4.17	3.39	3.36	3.53	3.38	3.07	2.85
9.5 µg/ml, genetic background: Δrob	2.91	3.047	3.17	2.92	2.53	2.84	2.56	2.85
9.5 µg/ml, genetic background: ΔsoxS	3.21	3.28	3.19	2.7	2.805	3.12	2.85	3.03
19 µg/ml, genetic background: wild type	3.09	3.19	3.34	3.15	3.13	3.45	3	3.15
19 µg/ml, genetic background: ΔmarA	2.97	4.39	3.8	3.32	3.67	3.93	3.08	2.97
19 µg/ml, genetic background: Δrob	3.06	3.17	3.51	3.15	2.81	3.085	2.92	3.15
19 µg/ml, genetic background: ΔsoxS	3.34	3.62	3.48	3.11	3.06	3.56	3.34	3.36
38.1 µg/ml, genetic background: wild type	2.93	3.07	3.35	3.0195	3.1	3.392	2.98	3.01
38.1 µg/ml, genetic background: ΔmarA	3.05	3.97	3.38	3.3	3.52	3.85	2.95	2.9
38.1 µg/ml, genetic background: Δrob	3.18	2.78	3.37	3.02	2.58	2.72	2.86	3.06
38.1 µg/ml, genetic background: ΔsoxS	3.35	3.148	3.11	2.94	2.77	3.14	3.11	3.31

O=c1[nH]c(=O)c2[nH]c(O)nc2[nH]1 [Sodium urate]
growth
Conditions	reporter plasmid: EVC	reporter plasmid: acrABp	reporter plasmid: marRABp	reporter plasmid: micFp	reporter plasmid: ompFp	reporter plasmid: robp	reporter plasmid: soxSp	reporter plasmid: tolCp
28.4 µg/ml, genetic background: wild type	3.22	3.15	3.17	3.09	3.02	3.21	3.01	2.96
28.4 µg/ml, genetic background: ΔmarA	2.86	4.28	3.49	3.48	3.24	3.59	2.85	3.02
28.4 µg/ml, genetic background: Δrob	3.02	2.99	3.257	3.02	2.8	2.78	2.75	2.79
28.4 µg/ml, genetic background: ΔsoxS	3.39	3.3	3.28	2.99	3.09	3.31	3.06	3.09
56.8 µg/ml, genetic background: wild type	3.122	2.99	3.28	2.88	3.11	3.33	2.85	2.92
56.8 µg/ml, genetic background: ΔmarA	2.79	4.14	3.51	3.23	3.26	4.04	2.66	2.88
56.8 µg/ml, genetic background: Δrob	2.92	2.86	3.36	2.72	2.93	2.73	2.5	2.6
56.8 µg/ml, genetic background: ΔsoxS	3.33	3.47	3.39	2.9	3.246	3.15	3	3.22
113.7 µg/ml, genetic background: wild type	3.14	3.06	3.27	3.09	3.16	3.3	2.84	3.04
113.7 µg/ml, genetic background: ΔmarA	2.95	3.98	3.39	3.36	3.23	3.76	2.817	3.05
113.7 µg/ml, genetic background: Δrob	3.1	3.08	3.52	3.04	2.95	2.77	2.75	2.91
113.7 µg/ml, genetic background: ΔsoxS	3.38	3.56	3.38	3.04	3.325	3.194	2.99	3.19
227.3 µg/ml, genetic background: wild type	3.09	2.68	3.07	2.75	3.06	2.8	2.72	3.075
227.3 µg/ml, genetic background: ΔmarA	2.76	3.558	3.11	3.24	3.22	3.6	2.52	2.85
227.3 µg/ml, genetic background: Δrob	2.88	2.55	3.21	2.79	2.72	2.395	2.53	2.81
227.3 µg/ml, genetic background: ΔsoxS	3.12	3.169	3.07	2.79	2.96	2.56	2.79	3.27

NC[C@H](O)c1ccc(O)c(O)c1 [Noradrenalin]
growth
Conditions	reporter plasmid: EVC	reporter plasmid: acrABp	reporter plasmid: marRABp	reporter plasmid: micFp	reporter plasmid: ompFp	reporter plasmid: robp	reporter plasmid: soxSp	reporter plasmid: tolCp
20 µg/ml, genetic background: wild type	3.04	2.77	2.93	3.09	2.83	3.023	3.18	3.23
20 µg/ml, genetic background: ΔmarA	3	3.69	3.16	3.25	3.08	3.23	2.96	2.8
20 µg/ml, genetic background: Δrob	3.11	2.57	3.15	3.15	2.36	2.44	2.91	3.23
20 µg/ml, genetic background: ΔsoxS	3.22	3.16	2.9	2.94	2.908	2.78	3.14	3.28
39.9 µg/ml, genetic background: wild type	2.89	2.79	2.93	3.18	2.71	3	3.06	3.248
39.9 µg/ml, genetic background: ΔmarA	3	3.6532	3.119	3.09	3.17	3.3	2.99	2.85
39.9 µg/ml, genetic background: Δrob	2.86	2.39	3.15	3.06	2.35	2.47	2.84	3.18
39.9 µg/ml, genetic background: ΔsoxS	3.03	2.94	2.79	2.8	2.82	2.77	2.92	3.1
79.8 µg/ml, genetic background: wild type	3.01	2.72	3.08	3.184	2.739	2.94	3.16	3.022
79.8 µg/ml, genetic background: ΔmarA	3.02	3.87	3.24	3.15	3.26	3.52	2.86	2.93
79.8 µg/ml, genetic background: Δrob	3.01	2.5	3.16	2.92	2.49	2.56	2.77	3.14
79.8 µg/ml, genetic background: ΔsoxS	3.21	3.37	2.85	2.76	3.09	3.19	3.19	3.11
159.6 µg/ml, genetic background: wild type	2.85	2.59	2.88	2.84	2.53	2.86	2.81	2.89
159.6 µg/ml, genetic background: ΔmarA	2.85	3.37	3.22	2.96	2.87	3.41	2.6	2.62
159.6 µg/ml, genetic background: Δrob	2.73	2.1	3.01	2.94	2.37	2.34	2.67	2.94
159.6 µg/ml, genetic background: ΔsoxS	2.9588	2.62	2.75	2.27	2.49	2.6	2.74	2.91

CC[C@H]1OC(=O)[C@H](C)[C@@H](O[C@H]2C[C@@](C)(OC)[C@@H](O)[C@H](C)O2)[C@H](C)[C@@H](O[C@@H]2O[C@H](C)C[C@H](N(C)C)[C@H]2O)[C@](C)(O)C[C@@H](C)C(=O)[C@H](C)[C@@H](O)[C@]1(C)O [Erythromycin]
growth
Conditions	reporter plasmid: EVC	reporter plasmid: acrABp	reporter plasmid: marRABp	reporter plasmid: micFp	reporter plasmid: ompFp	reporter plasmid: robp	reporter plasmid: soxSp	reporter plasmid: tolCp
1.8 µg/ml, genetic background: wild type	2.89	2.82	3.01	3.04	3.11	3.07	3.07	2.91
1.8 µg/ml, genetic background: ΔmarA	3.2	4.29	3.67	2.94	3.2	3.694	3.06	2.88
1.8 µg/ml, genetic background: Δrob	2.44	3.14	3.29	2.84	2.51	2.63	2.91	2.88
1.8 µg/ml, genetic background: ΔsoxS	2.85	2.86	2.88	2.51	3.29	3.03	2.89	2.79
3.7 µg/ml, genetic background: wild type	2.63	2.5	2.89	2.92	2.9	2.73	3.05	2.71
3.7 µg/ml, genetic background: ΔmarA	2.8	3.8	3.21	2.83	2.95	3.364	2.67	2.461
3.7 µg/ml, genetic background: Δrob	2.31	2.596	2.91	2.7	2.09	2.23	2.85	2.72
3.7 µg/ml, genetic background: ΔsoxS	2.55	2.53	2.53	2.08	2.55	2.61	2.34	2.54
7.3 µg/ml, genetic background: wild type	2.39	2.09	2.4194	2.34	2.46	2.53	2.81	2.3
7.3 µg/ml, genetic background: ΔmarA	2.15	3.05	2.49	2.15	2.51	2.87	2.62	1.79
7.3 µg/ml, genetic background: Δrob	1.65	1.94	2.39	2.03	1.55	1.54	2.29	2.05
7.3 µg/ml, genetic background: ΔsoxS	2.21	1.99	2.15	1.52	2.05	2.24	1.83	2.13
14.7 µg/ml, genetic background: wild type	1.2	0.574	1.02	1.209	0.7285	0.765	1.73	1.37
14.7 µg/ml, genetic background: ΔmarA	0.68	0.261	0.37	0.656	0.0593	0.811	1.2	0.779
14.7 µg/ml, genetic background: Δrob	0.597	0.22	0.411	0.752	0.0187	0.0373	1.2	1.15
14.7 µg/ml, genetic background: ΔsoxS	0.972	0.102	0.197	0.333	0.177	0.00513	0.452	1.04

Cc1ncc([N+](=O)[O-])n1CCO [Metronidazole]
growth
Conditions	reporter plasmid: EVC	reporter plasmid: acrABp	reporter plasmid: marRABp	reporter plasmid: micFp	reporter plasmid: ompFp	reporter plasmid: robp	reporter plasmid: soxSp	reporter plasmid: tolCp
0.11 µg/ml, genetic background: wild type	3.2	3.33	3.3	3.28	3.4	3.5	3.191	3.304
0.11 µg/ml, genetic background: ΔmarA	3.7	4.58	4.01	3.61	3.88	4.34	3.39	3.33
0.11 µg/ml, genetic background: Δrob	3.08	3.23	3.59	3.39	2.97	2.85	3.11	3.38
0.11 µg/ml, genetic background: ΔsoxS	3.42	3.5	3.51	3.14	3.3	3.47	3.287	3.27
0.21 µg/ml, genetic background: wild type	3.18	3.4	3.21	3.2	3.41	3.44	3	3.25
0.21 µg/ml, genetic background: ΔmarA	3.45	4.34	3.94	3.43	3.52	4.26	3.15	3.3
0.21 µg/ml, genetic background: Δrob	2.96	3.14	3.61	3.25	2.62	2.9	3.03	3.22
0.21 µg/ml, genetic background: ΔsoxS	3.22	3.47	3.28	2.88	3.19	3.2	3.27	3.17
0.43 µg/ml, genetic background: wild type	3.125	3.41	3.36	3.18	3.33	3.47	2.99	3.207
0.43 µg/ml, genetic background: ΔmarA	3.57	4.4	3.79	3.59	3.78	4.19	3.39	3.36
0.43 µg/ml, genetic background: Δrob	3.1	3.28	3.45	3.33	3.09	2.77	3.03	3.29
0.43 µg/ml, genetic background: ΔsoxS	3.43	3.49	3.5	3.15	3.24	3.5	3.37	3.45
0.86 µg/ml, genetic background: wild type	2.92	3.24	3.23	3.01	3.18	3.3	2.919	3.151
0.86 µg/ml, genetic background: ΔmarA	3.45	4.11	3.63	3.46	3.61	4.11	3.24	3.084
0.86 µg/ml, genetic background: Δrob	3.02	2.83	3.24	3.12	2.79	2.6	2.98	3.19
0.86 µg/ml, genetic background: ΔsoxS	3.33	3.21	3.18	2.83	3.1	3.03	3	3.344
